Among the data in article PMC5377257 are binding values, retold here.

Sequences of proteins named here, by UniProt entry; tags and fusion partners are left off.
UniProt Q9UEE9: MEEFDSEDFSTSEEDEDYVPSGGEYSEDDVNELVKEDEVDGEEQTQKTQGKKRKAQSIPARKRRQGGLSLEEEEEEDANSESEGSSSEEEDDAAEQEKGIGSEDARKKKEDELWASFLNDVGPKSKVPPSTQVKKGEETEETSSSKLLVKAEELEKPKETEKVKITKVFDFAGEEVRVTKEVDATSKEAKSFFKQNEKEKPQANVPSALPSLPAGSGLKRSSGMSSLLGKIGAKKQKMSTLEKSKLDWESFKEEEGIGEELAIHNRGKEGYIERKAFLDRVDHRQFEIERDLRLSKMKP
UniProt P45973: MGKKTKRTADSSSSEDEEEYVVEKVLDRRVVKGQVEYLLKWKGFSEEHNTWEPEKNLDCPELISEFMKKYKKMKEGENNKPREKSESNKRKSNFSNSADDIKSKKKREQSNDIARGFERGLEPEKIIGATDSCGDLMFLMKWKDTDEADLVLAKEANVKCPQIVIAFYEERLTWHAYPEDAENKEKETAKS

The test concerns the target V5-CFDP1 (Cranio Facial Development Protein 1 tagged with V5) (human) (UniProt Q9UEE9). Put plainly: co-IP; cleared lysates of transfected HeLa cells (IP buffer: 50 mM Tris-HCl pH 7.5, 150 mM NaCl, 1% NP-40, 5 mM EGTA, 5 mM EDTA, 20 mM NaF) immunoprecipitated O/N at 4 °C with mouse anti-V5 antibody and protein A/G agarose; Ms IgG as negative control; Western blot. Background: Immunoblotting shows a protein as a band on a membrane.

No constants are given. Whether binding was seen depends on the method and setting. In cells and extracts the contact can be indirect. Some binding calls cover weakened binding; strength is not graded here.

Regarding HP1α (from UniProt P45973 1-191), the binding entry is given as “binds weakly”.
